Assay results taken from patent US20220074941A1, “HSP90 COMBINATION THERAPY” (Sloan-Kettering Institute for Cancer Research, priority 2011, published 2022).

Assays:
[1] = system: Hsp90 complexes in Mia-PaCa-2 cell extract; assay: Nano-LC-MS/MS of PU-beads pull-downs; type: binding, human; settings: protein identified in PU-beads pull-down of Mia-Paca 2 extract; QSTAR-Elite QTof MS
Outline: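 Lysates pre-cleared overnight at 4 °C with control beads underwent PU-bead pull-down; bound proteins were SDS-eluted, gel-separated, digested and analyzed by nano-LC-MS/MS on a QTof. Identifications used significance p<0.05, 0.4 Da tolerances and one missed cleavage; unique peptide (spectral) counts and sequence coverage were reported.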

[2] = system: Hsp90 complexes in K562 cell extract; assay: Nano-LC-MS/MS of PU-beads pull-downs; type: binding; settings: protein identified in PU-beads pull-down of K562 extract, QSTAR-Elite QTof MS
Outline: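 Lysates pre-cleared overnight at 4 °C with control beads, then pulled down with PU-beads or control beads; eluted proteins (2% SDS boil) gel-separated and analysed by nano LC-MS/MS on a QTof. Mascot identification (p<0.05), spectral counts and sequence coverage evaluated in Scaffold.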

Molecule	Number of Assigned Spectra, Mia-Paca 2 [1]	Number of Assigned Spectra, K562 Prep 1 [2]	Number of Assigned Spectra, K562 Prep 2 [2]
RANGAP1 (protein, UniProt P46060 2-587, looked up) Ran GTPase-activating protein …: ASEDIAKLAETLAKTQVAGGQLSFKGKSLKLNTAEDAKDVIKEIEDFDSLEALRLEGNTVGVEAARVIAKALEKKSELKRCHWSDMFTGRLRTEIPPALISLGEGLITAGAQLVELDLSDNAFGPDGVQGFEALLKSSACFTLQELKLNNCGMGIGGGKILAAALTECHRKSSAQGKPLALKVFVAGRNRLENDGATALAEAFRVIGTLEEVHMPQNGINHPGITALAQAFAVNPLLRVINLNDNTFTEKGAVAMAETLKTLRQVEVINFGDCLVRSKGAVAIADAIRGGLPKLKELNLSFCEIKRDAALAVAEAMADKAELEKLDLNGNTLGEEGCEQLQEVLEGFNMAKVLASLSDDEDEEEEEEGEEEEEEAEEEEEEDEEEEEEEEEEEEEEPQQRGQGEKSATPSRKILDPNTGEPAPVLSSPPPADVSTFLAFPSPEKLLRLGPKSSVLIAQQTDTSDPEKVVSAFLKVSSVFKDEATVRMAVQDAVDALMQKAFNSSSFNSNTFLTRLLVHMGLLKSEDKVKAIANLYGPLMALNHMVQQDYFPKALAPLLLAFVTKPNSALESCSFARHSLLQTLYKV	1	13	4
GAPVD1 (protein, UniProt Q14C86 1-1478, looked up) GTPase-activating protein and …: MVKLDIHTLAHHLKQERLYVNSEKQLIQRLNADVLKTAEKLYRTAWIAKQQRINLDRLIITSAEASPAECCQHAKILEDTQFVDGYKQLGFQETAYGEFLSRLRENPRLIASSLVAGEKLNQENTQSVIYTVFTSLYGNCIMQEDESYLLQVLRYLIEFELKESDNPRRLLRRGTCAFSILFKLFSEGLFSAKLFLTATLHEPIMQLLVEDEDHLETDPNKLIERFSPSQQEKLFGEKGSDRFRQKVQEMVESNEAKLVALVNKFIGYLKQNTYCFPHSLRWIVSQMYKTLSCVDRLEVGEVRAMCTDLLLACFICPAVVNPEQYGIISDAPINEVARFNLMQVGRLLQQLAMTGSEEGDPRTKSSLGKFDKSCVAAFLDVVIGGRAVETPPLSSVNLLEGLSRTVVYITYSQLITLVNFMKSVMSGDQLREDRMALDNLLANLPPAKPGKSSSLEMTPYNTPQLSPATTPANKKNRLPIATRSRSRTNMLMDLHMDHEGSSQETIQEVQPEEVLVISLGTGPQLTPGMMSENEVLNMQLSDGGQGDVPVDENKLHGKPDKTLRFSLCSDNLEGISEGPSNRSNSVSSLDLEGESVSELGAGPSGSNGVEALQLLEHEQATTQDNLDDKLRKFEIRDMMGLTDDRDISETVSETWSTDVLGSDFDPNIDEDRLQEIAGAAAENMLGSLLCLPGSGSVLLDPCTGSTISETTSEAWSVEVLPSDSEAPDLKQEERLQELESCSGLGSTSDDTDVREVSSRPSTPGLSVVSGISATSEDIPNKIEDLRSECSSDFGGKDSVTSPDMDEITHGAHQLTSPPSQSESLLAMFDPLSSHEGASAVVRPKVHYARPSHPPPDPPILEGAVGGNEARLPNFGSHVLTPAEMEAFKQRHSYPERLVRSRSSDIVSSVRRPMSDPSWNRRPGNEERELPPAAAIGATSLVAAPHSSSSSPSKDSSRGETEERKDSDDEKSDRNRPWWRKRFVSAMPKAPIPFRKKEKQEKDKDDLGPDRFSTLTDDPSPRLSAQAQVAEDILDKYRNAIKRTSPSDGAMANYESTGDNHDRDLSSKLLYHSDKEVMGDGESAHDSPRDEALQNISADDLPDSASQAAHPQDSAFSYRDAKKKLRLALCSADSVAFPVLTHSTRNGLPDHTDPEDNEIVCFLKVQIAEAINLQDKNLMAQLQETMRCVCRFDNRTCRKLLASIAEDYRKRAPYIAYLTRCRQGLQTTQAHLERLLQRVLRDKEVANRYFTTVCVRLLLESKEKKIREFIQDFQKLTAADDKTAQVEDFLQFLYGAMAQDVIWQNASEEQLQDAQLAIERSVMNRIFKLAFYPNQDGDILRDQVLHEHIQRLSKVVTANHRALQIPEVYLREAPWPSAQSEIRTISAYKTPRDKVQCILRMCSTIMNLLSLANEDSVPGADDFVPVLVFVLIKANPPCLLSTVQYISSFYASCLSGEESYWWMQFTAAVEFIKTIDDRK	6	4	6
